These are yes or no findings as the source states them, for the method shown. Binding seen in cells or lysates may run through a third protein. These calls come from enrichment with a bait or labelling near it, and not all partners need be listed.

4 substances from paper PMC5129563 can be followed below.

Assay [1] deals with T1, ɛ‐sarcoglycan (rat, endogenous; all isoforms caught by the pan antibody esg‐4990) (rat (endogenous in brain and heart)) (UniProt Q6YAT4).
T1 sequence: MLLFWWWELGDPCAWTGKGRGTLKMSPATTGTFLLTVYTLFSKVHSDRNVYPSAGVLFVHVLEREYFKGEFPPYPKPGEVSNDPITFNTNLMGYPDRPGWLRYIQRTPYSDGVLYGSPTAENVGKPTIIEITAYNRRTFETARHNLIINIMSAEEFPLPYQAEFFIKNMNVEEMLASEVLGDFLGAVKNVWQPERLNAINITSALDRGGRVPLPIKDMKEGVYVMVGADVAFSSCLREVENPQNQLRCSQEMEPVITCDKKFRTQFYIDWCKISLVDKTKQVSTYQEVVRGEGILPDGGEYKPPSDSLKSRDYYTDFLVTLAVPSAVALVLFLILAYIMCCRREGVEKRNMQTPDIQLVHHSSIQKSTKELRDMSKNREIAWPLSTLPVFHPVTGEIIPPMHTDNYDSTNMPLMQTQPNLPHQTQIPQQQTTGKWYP
Nature of the assay: affinity purification with mass spectrometry; esg‐4990‐conjugated protein A agarose beads, rat heart solubilized in RIPA buffer, 4 °C; Coomassie bands excised; protein A bead control.

For assay [2], the target named is T1, ɛ‐sarcoglycan (rat, endogenous; all isoforms caught by the pan antibody esg‐4990) (rat (endogenous in brain and heart)). Nature of the assay: affinity purification with mass spectrometry; esg‐4990‐conjugated protein A agarose beads, rat brain solubilized in RIPA buffer, 4 °C; Coomassie bands between 55 and 25 kDa excised; protein A bead control.

As for γ‐sarcoglycan (rat, endogenous), the binding entry in assay [1] and in assay [2] was “binds” in each case. In the case of ζ‐sarcoglycan (rat, endogenous), the binding result in assay [2] was “binds”. As to δ‐sarcoglycan (rat, endogenous), the binding result in assay [1] and in assay [2] was “binds” in each case. Turning to β‐sarcoglycan (rat, endogenous), the binding result in assay [1] and in assay [2] was “binds” each time.
